The results in this text go back to the supplement of paper PMC10849652.

Chains of the proteins cited; added tags and fusions are not shown. Lines headed by an entry give the natural chain unless they say otherwise; changes in a name come on top.
UniProt P20226, whole entry, looked up: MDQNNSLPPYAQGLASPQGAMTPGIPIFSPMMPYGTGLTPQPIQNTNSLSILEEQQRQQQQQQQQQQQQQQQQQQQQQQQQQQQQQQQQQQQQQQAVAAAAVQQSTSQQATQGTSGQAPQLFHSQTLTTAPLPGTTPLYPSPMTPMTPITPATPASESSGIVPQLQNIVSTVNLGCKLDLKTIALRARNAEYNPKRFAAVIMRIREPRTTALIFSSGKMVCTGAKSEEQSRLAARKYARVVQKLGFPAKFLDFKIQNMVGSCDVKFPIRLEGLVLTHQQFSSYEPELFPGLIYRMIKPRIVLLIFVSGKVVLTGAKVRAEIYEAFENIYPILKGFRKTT
UniProt Q9BYX2: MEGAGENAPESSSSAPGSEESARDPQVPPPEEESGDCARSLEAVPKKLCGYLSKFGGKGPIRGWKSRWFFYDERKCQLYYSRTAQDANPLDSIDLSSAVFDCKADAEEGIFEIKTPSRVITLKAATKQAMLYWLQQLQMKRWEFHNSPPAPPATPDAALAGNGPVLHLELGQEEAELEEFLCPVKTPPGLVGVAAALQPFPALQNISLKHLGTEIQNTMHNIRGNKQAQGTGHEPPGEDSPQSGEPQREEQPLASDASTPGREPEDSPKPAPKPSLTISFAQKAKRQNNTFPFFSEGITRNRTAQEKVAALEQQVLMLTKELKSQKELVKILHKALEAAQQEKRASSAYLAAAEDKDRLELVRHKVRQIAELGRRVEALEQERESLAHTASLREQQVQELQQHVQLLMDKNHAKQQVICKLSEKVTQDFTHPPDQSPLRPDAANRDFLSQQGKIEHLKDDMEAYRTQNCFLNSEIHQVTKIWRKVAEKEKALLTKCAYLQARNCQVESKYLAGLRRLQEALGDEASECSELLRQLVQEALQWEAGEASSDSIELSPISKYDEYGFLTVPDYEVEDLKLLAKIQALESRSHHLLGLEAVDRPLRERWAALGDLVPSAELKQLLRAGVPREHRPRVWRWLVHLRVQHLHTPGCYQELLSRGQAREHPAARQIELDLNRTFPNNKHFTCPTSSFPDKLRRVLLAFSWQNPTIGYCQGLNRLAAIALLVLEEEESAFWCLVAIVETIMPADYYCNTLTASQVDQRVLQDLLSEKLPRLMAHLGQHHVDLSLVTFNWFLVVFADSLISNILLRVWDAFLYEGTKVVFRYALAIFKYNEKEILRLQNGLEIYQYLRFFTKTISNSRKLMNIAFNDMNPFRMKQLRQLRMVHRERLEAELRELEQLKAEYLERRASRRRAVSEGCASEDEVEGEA
UniProt Q14188: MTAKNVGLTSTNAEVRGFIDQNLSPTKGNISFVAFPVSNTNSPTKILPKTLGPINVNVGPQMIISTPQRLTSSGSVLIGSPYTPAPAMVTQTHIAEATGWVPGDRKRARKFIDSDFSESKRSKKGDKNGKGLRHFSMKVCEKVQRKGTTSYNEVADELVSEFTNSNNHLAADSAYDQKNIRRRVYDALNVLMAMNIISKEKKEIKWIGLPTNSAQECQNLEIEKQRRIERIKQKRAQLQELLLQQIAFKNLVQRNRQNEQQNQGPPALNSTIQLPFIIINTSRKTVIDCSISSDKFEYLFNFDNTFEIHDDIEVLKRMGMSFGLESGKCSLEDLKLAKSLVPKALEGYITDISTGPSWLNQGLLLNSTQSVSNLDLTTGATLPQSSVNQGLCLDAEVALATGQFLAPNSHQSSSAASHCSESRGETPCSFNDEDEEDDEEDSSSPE
UniProt Q15170: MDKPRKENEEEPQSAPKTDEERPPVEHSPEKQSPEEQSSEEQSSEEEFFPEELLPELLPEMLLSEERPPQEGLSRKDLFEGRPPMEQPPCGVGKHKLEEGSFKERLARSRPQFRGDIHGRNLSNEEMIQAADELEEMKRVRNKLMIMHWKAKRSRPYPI
UniProt Q13428: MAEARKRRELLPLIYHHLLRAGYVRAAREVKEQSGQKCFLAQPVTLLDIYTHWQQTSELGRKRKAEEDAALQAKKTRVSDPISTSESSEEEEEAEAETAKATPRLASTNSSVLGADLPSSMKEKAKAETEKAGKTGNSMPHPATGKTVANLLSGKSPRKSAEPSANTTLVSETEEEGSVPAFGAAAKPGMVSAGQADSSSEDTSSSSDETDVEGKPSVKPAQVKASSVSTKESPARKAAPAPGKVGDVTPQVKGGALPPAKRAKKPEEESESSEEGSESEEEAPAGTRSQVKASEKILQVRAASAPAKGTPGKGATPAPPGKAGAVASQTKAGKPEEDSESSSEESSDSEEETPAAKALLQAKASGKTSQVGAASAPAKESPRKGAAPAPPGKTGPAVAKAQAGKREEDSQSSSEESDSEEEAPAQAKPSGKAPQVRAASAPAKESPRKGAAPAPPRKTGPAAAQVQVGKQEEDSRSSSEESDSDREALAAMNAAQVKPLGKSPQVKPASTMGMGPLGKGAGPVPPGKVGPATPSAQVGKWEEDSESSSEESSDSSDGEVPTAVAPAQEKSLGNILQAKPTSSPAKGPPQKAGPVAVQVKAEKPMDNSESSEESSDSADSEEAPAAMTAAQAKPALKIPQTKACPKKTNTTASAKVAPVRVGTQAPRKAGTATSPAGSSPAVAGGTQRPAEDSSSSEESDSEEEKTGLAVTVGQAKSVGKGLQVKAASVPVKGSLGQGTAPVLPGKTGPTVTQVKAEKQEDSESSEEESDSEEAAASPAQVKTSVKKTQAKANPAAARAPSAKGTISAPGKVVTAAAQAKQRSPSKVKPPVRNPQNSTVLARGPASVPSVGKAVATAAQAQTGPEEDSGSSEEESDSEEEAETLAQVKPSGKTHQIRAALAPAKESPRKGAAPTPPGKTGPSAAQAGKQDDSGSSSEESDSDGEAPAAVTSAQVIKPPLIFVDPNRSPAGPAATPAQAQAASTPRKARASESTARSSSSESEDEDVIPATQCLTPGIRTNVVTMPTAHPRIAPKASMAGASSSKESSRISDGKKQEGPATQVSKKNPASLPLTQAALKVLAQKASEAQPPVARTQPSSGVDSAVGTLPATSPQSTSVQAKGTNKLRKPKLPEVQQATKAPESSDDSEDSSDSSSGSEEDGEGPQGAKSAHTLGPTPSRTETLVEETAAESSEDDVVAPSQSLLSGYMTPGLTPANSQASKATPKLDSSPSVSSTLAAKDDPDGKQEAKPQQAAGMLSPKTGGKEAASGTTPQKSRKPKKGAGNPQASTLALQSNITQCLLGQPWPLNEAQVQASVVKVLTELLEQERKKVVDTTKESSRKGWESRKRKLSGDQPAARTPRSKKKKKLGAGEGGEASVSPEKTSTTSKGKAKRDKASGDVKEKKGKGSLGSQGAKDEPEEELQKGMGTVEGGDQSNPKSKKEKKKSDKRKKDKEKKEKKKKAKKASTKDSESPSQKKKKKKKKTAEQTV
UniProt P15923: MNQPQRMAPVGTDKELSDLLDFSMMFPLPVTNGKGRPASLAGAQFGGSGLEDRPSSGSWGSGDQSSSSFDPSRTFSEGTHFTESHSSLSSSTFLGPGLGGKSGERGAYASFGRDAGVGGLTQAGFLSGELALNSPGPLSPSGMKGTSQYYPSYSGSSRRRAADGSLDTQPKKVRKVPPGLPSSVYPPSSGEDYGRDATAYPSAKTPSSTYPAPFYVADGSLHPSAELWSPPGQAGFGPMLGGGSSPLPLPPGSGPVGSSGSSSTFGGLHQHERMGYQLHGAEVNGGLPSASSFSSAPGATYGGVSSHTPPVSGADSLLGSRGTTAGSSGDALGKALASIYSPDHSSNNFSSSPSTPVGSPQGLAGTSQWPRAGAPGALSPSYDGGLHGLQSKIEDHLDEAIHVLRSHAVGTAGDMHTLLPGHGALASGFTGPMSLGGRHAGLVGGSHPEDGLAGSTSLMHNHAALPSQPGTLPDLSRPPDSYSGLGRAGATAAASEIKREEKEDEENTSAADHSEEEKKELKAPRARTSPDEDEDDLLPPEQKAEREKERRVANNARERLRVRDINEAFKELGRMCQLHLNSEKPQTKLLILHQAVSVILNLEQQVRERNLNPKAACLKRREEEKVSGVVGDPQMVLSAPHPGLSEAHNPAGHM
UniProt Q96EI5: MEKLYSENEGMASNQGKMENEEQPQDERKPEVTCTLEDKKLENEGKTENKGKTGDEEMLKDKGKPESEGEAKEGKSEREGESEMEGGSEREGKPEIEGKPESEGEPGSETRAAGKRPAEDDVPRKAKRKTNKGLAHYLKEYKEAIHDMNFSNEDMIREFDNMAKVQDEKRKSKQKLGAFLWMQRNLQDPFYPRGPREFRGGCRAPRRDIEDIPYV

What all share (test): log2 fold change, soluble protein after heating vs DMSO (PISA); higher = thermal stabilisation; K562 cells, 10 uM, 30 min; active = over 0.2 and 3.5 SD of the protein, either way, in both replicates (recomputed)
Compound in one assay: C#Cc1cccc(Nc2ncnc3cc(OCCOC)c(OCCOC)cc23)c1 [erlotinib]
In outline: (§1)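 Aliquots of K562 cells (2×10^6 cells/mL) treated with 10 μM compound for 30 min were heated for 3 min over 48°C-58°C. After pooling and extraction in PBS with 0.5% NP-40 at 4°C, soluble protein from a 21,000xg, 90 min spin was quantified by TMTpro 16plex LC-MS/MS with channel sums equalised. Thermal stability is expressed against control samples, from duplicates, as a log2 fold change.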

Compound in assay [1]: C1=CC(=CC=C1C2=NC3=C(N2)C=C(C=C3)C(=O)N)OC4=CC=C(C=C4)Cl
In outline:
as §1

Compound in assay [2]: C1=CC2=NC=CN=C2C=C1/C=C/3\C(=O)NC(=O)S3
In outline:
as §1

Compound in the next assay: C=CC(=O)N1CCC[C@@H](n2nc(-c3ccc(Oc4ccccc4)cc3)c3c(N)ncnc32)C1 [ibrutinib]
In outline: as §1

Compound in assay [3]: CC(C)C1=C2N=C(C=C(N2N=C1)NCC3=CC=CC=C3)NCCCCCCN
An outline of the steps: as §1

Compound in assay [4]: C/C(=N\NC(=O)C1=CC(=CC=C1)S(=O)(=O)N2CCOCC2)/C3=C(C=CC(=C3)Cl)O
In outline:
as §1

Compound in assay [5]: C1=CC(=C(C=C1Cl)C2=NC3=NC=CN=C3C(=N2)NC4=CC=NC=C4)F
In outline:
as §1

Compound in assay [6]: C1=CC2=C(C=CC(=C2)/C=C\3/C(=O)NC(=NCC4=CC=CS4)S3)N=C1
An outline of the steps: as §1

Compound in assay [7]: C1=CC=C(C=C1)C2=NC(=C(N2)C3=CC=NC=C3)C4=CC(=C(C=C4)Cl)O
In outline:
as §1

Compound in assay [8]: C1=CC=C2C(=C1)C3=NNC4=CC=CC(=C43)C2=O
In outline:
as §1

Compound in assay [9]: C1CCN(C1)C(=O)NC2=CC=CC(=C2)NC3=NC=C(C(=N3)NCCC4=CN=CN4)Br
In outline: as §1

Compound in assay [10]: C1CN(CCC1(CC2=CC=C(C=C2)Cl)N)C3=NC=NC4=C3C=CN4
In outline: as §1

Compound in the next assay: C1COCCN1CCN2C3=CC=CC=C3N=C2NC(=O)C4=CC(=CC=C4)[N+](=O)[O-] [IRAK-1-4 Inhibitor I]
An outline of the steps:
as §1

Compound in assay [11]: CC(=O)c1cnc2ccc(-c3cc(Cl)c(O)c(Cl)c3)nc2c1N[C@H]1CC[C@H](CN(C)C)CC1
In outline: as §1

Compound in a further assay: CC(C)(C)Cn1c(N)nc2ccc(-c3[nH]c(C(C)(C)C)nc3-c3ccc(F)cc3)nc21 [ralimetinib]
An outline of the steps:
as §1

Compound in assay [12]: CC(C)(O)CC(=O)NCCn1ccc2ncnc(Nc3ccc(Oc4cccc(C(F)(F)F)c4)c(Cl)c3)c21
An outline of the steps:
as §1

Compound in assay [13]: CC(C)C[C@@H](C=O)NC(=O)[C@H](CC(C)C)NC(=O)[C@H](CC(C)C)NC(=O)OCc1ccccc1
An outline of the steps:
as §1

Compound in the next assay: CC(C)N(C[C@H]1O[C@@H](n2cnc3c(N)ncnc32)[C@H](O)[C@@H]1O)[C@H]1C[C@@H](CCc2nc3cc(C(C)(C)C)ccc3[nH]2)C1 [pinometostat]
An outline of the steps:
as §1

Compound in assay [14]: CC1=C(C2=C(C=C1)C(=O)C3=CC=CC=C3N2CCCN)C
In outline:
as §1

Compound in assay [15]: CC1=C(C(CC(=O)N1)C2=CC=C(C=C2)C(F)(F)F)C(=O)NC3=C(C=C4C(=C3)C=NN4)F
In outline:
as §1

The other results are listed elsewhere or left out. Residues, ends and D or L forms follow the SMILES beside them. *: point of attachment. Cbz = O=C(OCc1ccccc1)*

With TEX10 (UniProt Q9NXF1), the log2 fold change is inactive: -0.037 in the assay with erlotinib; inactive: -0.039 in [1]; inactive: -0.024 in [2]; inactive: -0.072 with ibrutinib; inactive: 0.556 in assay [3].
For TBP (UniProt P20226), the log2 fold change in [4] was inactive: -0.016; in assay [5], inactive: 0.027; in assay [6], inactive: 0.073; in assay [2] it was inactive: 0.041; in assay [7], inactive: 0.012; in assay [8], inactive: -0.058. Besides, the log2 fold change is inactive: 0.018 in [9]; inactive: 0.157 in assay [10]; inactive: 0.018 with IRAK-1-4 Inhibitor I; inactive: -0.029 with ibrutinib; inactive: 0.091 in assay [11]; inactive: -0.016 with ralimetinib. For the same target, the log2 fold change was inactive: 0.036 in assay [12], inactive: -0.002 in assay [13], inactive: -0.019 with pinometostat and active: 0.528 in assay [14].
For TBC1D2 (UniProt Q9BYX2), the log2 fold change in [4] was inactive: 0; in [5], inactive: -0.042; in assay [6], inactive: 0.063; in [8], inactive: -0.006; in assay [11], inactive: -0.208; in assay [12] it was inactive: 0.007.
In the case of TFDP2 (UniProt Q14188), the log2 fold change in [5] was inactive: -0.024; in assay [2] it was inactive: 0.151; in assay [9] it was inactive: 0.21; in assay [10], inactive: 0.071; in the assay with ibrutinib it was inactive: -0.271; in [12], inactive: 0.132. Further, in [14], the log2 fold change was inactive: -0.359.
On to TEDC2 (UniProt Q7L2K0), for which the log2 fold change was inactive: -0.093 in assay [4]; inactive: -0.104 in assay [6]; inactive: 0 in assay [8]; inactive: -0.027 in assay [9]; inactive: -0.058 in assay [10]; inactive: 0.031 in [11]. The log2 fold change in assay [14] is inactive: 0.083.
Turning to TCEAL1 isoform 2 (UniProt Q15170), the log2 fold change was inactive: -0.162 in assay [7]; inactive: -0.036 in assay [9]; inactive: 0.121 in assay [10]; inactive: 0.209 with IRAK-1-4 Inhibitor I; inactive: 0.049 in the assay with ralimetinib; inactive: 0.005 in assay [13]. For the same target, the log2 fold change is inactive: -0.268 in the assay with pinometostat and inactive: 0.018 in assay [14].
For TCF20 (UniProt Q9UGU0), the log2 fold change is inactive: 0.157 in assay [5]; inactive: 0.086 in [2]; inactive: 0.043 in [7]; inactive: -0.043 with ibrutinib; inactive: 0.316 in the assay with ralimetinib; inactive: 0.245 in assay [12]. Moreover, the log2 fold change in assay [13] is inactive: -0.221.
As for TCOF1 isoform 6 (UniProt Q13428), the log2 fold change is inactive: -0.234 with erlotinib; inactive: 0.074 in assay [1]; inactive: -0.045 in assay [2]; inactive: 0.186 in assay [7]; inactive: 0.002 in assay [9]; inactive: 0.02 in [10]. In addition, the log2 fold change with IRAK-1-4 Inhibitor I is inactive: 0.041; with ibrutinib it was inactive: 0.12; in the assay with ralimetinib it was inactive: 0.225; in [3], inactive: 0.092; in [13], inactive: -0.127; in the assay with pinometostat, inactive: -0.121. Besides, in [14], the log2 fold change was inactive: -0.155.
Turning to THAP12 (UniProt O43422), the log2 fold change with erlotinib was inactive: -0.19; in [1], inactive: 0.125; in [7], inactive: -0.014; with IRAK-1-4 Inhibitor I it was inactive: -0.186; with ralimetinib, inactive: 0.032; in assay [3], inactive: 0.195. Also, the log2 fold change in [13] is inactive: 0.147; with pinometostat, inactive: 0.105; in assay [15], inactive: -0.052.
In the case of TET2 (UniProt Q6N021), the log2 fold change in [9] is inactive: -0.149; in [10] it was inactive: 0.37; in the assay with IRAK-1-4 Inhibitor I, inactive: 0.092; in the assay with pinometostat, inactive: 0.058; in [15], inactive: 0.1; in assay [14], inactive: 0.132.
With TCF3 isoform 2 (UniProt P15923), the log2 fold change in [4] was inactive: 0.022; in assay [6] it was inactive: 0.117; in assay [7], inactive: -0.001; in assay [8], inactive: -0.081; in assay [9], inactive: -0.102; in [10], inactive: -0.047. Moreover, the log2 fold change with IRAK-1-4 Inhibitor I is inactive: 0.02; in [11] it was inactive: -0.037; with ralimetinib it was inactive: -0.08; in [13], inactive: 0.174; in the assay with pinometostat, inactive: -0.11; in [14] it was inactive: 0.013.
Consider THAP9 (UniProt Q9H5L6), for which the log2 fold change in assay [4] is active: -0.733; in assay [6] it was inactive: 0.163; in assay [2], inactive: -0.211; in assay [7], inactive: 0.123; in assay [8], inactive: -0.057; in the assay with IRAK-1-4 Inhibitor I, inactive: 0.07. Moreover, the log2 fold change with ibrutinib is inactive: 0.002; in assay [11], inactive: -0.105; with ralimetinib, inactive: 0.178; in assay [13], inactive: -0.025; with pinometostat, inactive: -0.035.
For TBC1D25 (UniProt Q3MII6), the log2 fold change is inactive: 0.236 with erlotinib; inactive: 0.098 in assay [1]; inactive: -0.126 in [2]; inactive: -0.25 in the assay with ibrutinib; inactive: -0.124 in assay [3].
With TCEAL4 isoform 2 (UniProt Q96EI5), the log2 fold change was inactive: -0.011 with erlotinib; inactive: -0.031 in assay [5]; inactive: 0.012 in [1]; inactive: -0.352 in assay [7]; inactive: -0.076 in assay [9]; inactive: -0.084 in assay [10]. Further, the log2 fold change with IRAK-1-4 Inhibitor I is inactive: 0.117; in the assay with ralimetinib it was inactive: -0.168; in [12] it was inactive: -0.052; in assay [3], inactive: 0.077; in assay [13] it was inactive: 0.143; with pinometostat it was inactive: -0.064. In [14], the log2 fold change is inactive: -0.097.
